Taken from: PubChem BioAssay AID1159579 (Peter MacCallum Cancer Centre, 2015)

Assay: 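Find genes whose silencing alters migration of lymphatic endothelial cells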 (follow-up of hits)
Cell system: human dermal lymphatic endothelial cells
Reagents: single siRNA against human genes, 25 nM
Read-out: 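High content images of wound closure area and cell nuclei counts, each the average of two wells, expressed against mock transfection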
Scale: migration relative to mock: higher = more migration into the scratch; mean nuclei count: higher = more cells remaining
Call rule: 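Called active when the migration ratio is 0.6 or lower (impaired) or 1.3 or higher (accelerated), but inactive whenever the mean nuclei count falls under 3300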
Calls: active = migration changed (impaired or accelerated); inactive = no migration change, or too few cells
Here is a random part of about 2,000 reagents tested. In the full data, 549 (27%) were called active. 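Some migration ratios are negative; siRNAs with too few cells are inactive whatever their migration ratio.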 The numbers tell different reagents against one gene apart. Reagent sequences are not shown. The record does not give: the time to read-out.

Gene | reagent no. | migration relative to mock | migration and cell number class | mean nuclei count | Outcome
SPATS2L (spermatogenesis associated serine rich 2 like) | 1 | 0.78 | no change in migration or cell number | 6021 | inactive
SPATS2L (spermatogenesis associated serine rich 2 like) | 2 | 0.9 | no change in migration or cell number | 6256 | inactive
SPATS2L (spermatogenesis associated serine rich 2 like) | 3 | 0.5 | migration reduced | 5406 | active
SPATS2L (spermatogenesis associated serine rich 2 like) | 4 | 1.16 | no change in migration or cell number | 6202 | inactive
TLL2 (tolloid like 2) | 1 | 0.87 | no change in migration or cell number | 4078 | inactive
TLL2 (tolloid like 2) | 2 | 0.51 | migration reduced | 4206 | active
TLL2 (tolloid like 2) | 3 | -0.1 | too few cells; migration not scored | 2903 | inactive
TLL2 (tolloid like 2) | 4 | 0.66 | no change in migration or cell number | 5194 | inactive
PPIA (peptidylprolyl isomerase A) | 1 | 1.19 | no change in migration or cell number | 4643 | inactive
PPIA (peptidylprolyl isomerase A) | 2 | 1.25 | no change in migration or cell number | 4473 | inactive
PPIA (peptidylprolyl isomerase A) | 3 | 0.88 | no change in migration or cell number | 5058 | inactive
PPIA (peptidylprolyl isomerase A) | 4 | 1.06 | no change in migration or cell number | 6476 | inactive
OPRPN (opiorphin prepropeptide) | 1 | 1.1 | no change in migration or cell number | 6550 | inactive
OPRPN (opiorphin prepropeptide) | 2 | 1.04 | no change in migration or cell number | 5038 | inactive
OPRPN (opiorphin prepropeptide) | 3 | 1.08 | no change in migration or cell number | 5308 | inactive
OPRPN (opiorphin prepropeptide) | 4 | 0.98 | no change in migration or cell number | 5280 | inactive
SACK1E (scaffolding CK1 anchoring protein E) | 1 | 1.04 | no change in migration or cell number | 4914 | inactive
SACK1E (scaffolding CK1 anchoring protein E) | 2 | 1.14 | no change in migration or cell number | 5370 | inactive
SACK1E (scaffolding CK1 anchoring protein E) | 3 | 0.88 | no change in migration or cell number | 5788 | inactive
SACK1E (scaffolding CK1 anchoring protein E) | 4 | 0.15 | migration reduced | 3938 | active
OBP2A (odorant binding protein 2A) | 1 | 0.69 | no change in migration or cell number | 5746 | inactive
OBP2A (odorant binding protein 2A) | 2 | 0.74 | no change in migration or cell number | 4212 | inactive
OBP2A (odorant binding protein 2A) | 3 | 1.04 | no change in migration or cell number | 7130 | inactive
OBP2A (odorant binding protein 2A) | 4 | 0.76 | no change in migration or cell number | 5187 | inactive
RRP1 (ribosomal RNA processing 1) | 1 | 0.88 | no change in migration or cell number | 6034 | inactive
RRP1 (ribosomal RNA processing 1) | 2 | 0.72 | no change in migration or cell number | 5022 | inactive
RRP1 (ribosomal RNA processing 1) | 3 | 0.7 | no change in migration or cell number | 5965 | inactive
RRP1 (ribosomal RNA processing 1) | 4 | 0.76 | no change in migration or cell number | 5642 | inactive
ISL2 (ISL LIM homeobox 2) | 1 | 0.7 | no change in migration or cell number | 6202 | inactive
ISL2 (ISL LIM homeobox 2) | 2 | 1.04 | no change in migration or cell number | 6034 | inactive
ISL2 (ISL LIM homeobox 2) | 3 | 0.36 | migration reduced | 4066 | active
ISL2 (ISL LIM homeobox 2) | 4 | 0.13 | migration reduced | 4539 | active
HOXC5 (homeobox C5) | 1 | 0.22 | migration reduced | 4792 | active
HOXC5 (homeobox C5) | 2 | 0.06 | migration reduced | 4000 | active
HOXC5 (homeobox C5) | 3 | 0.92 | no change in migration or cell number | 6020 | inactive
HOXC5 (homeobox C5) | 4 | 0.52 | migration reduced | 6646 | active
CWC22 (CWC22 spliceosome associated protein) | 1 | 0.67 | no change in migration or cell number | 5765 | inactive
CWC22 (CWC22 spliceosome associated protein) | 2 | 0.3 | migration reduced | 5154 | active
CWC22 (CWC22 spliceosome associated protein) | 3 | 0.59 | migration reduced | 6565 | active
CWC22 (CWC22 spliceosome associated protein) | 4 | 0.75 | no change in migration or cell number | 6143 | inactive
DBP (D-box binding PAR bZIP transcription factor) | 1 | 0.12 | migration reduced | 4796 | active
DBP (D-box binding PAR bZIP transcription factor) | 2 | 0.96 | no change in migration or cell number | 6710 | inactive
DBP (D-box binding PAR bZIP transcription factor) | 3 | 0.64 | no change in migration or cell number | 4828 | inactive
DBP (D-box binding PAR bZIP transcription factor) | 4 | 0.1 | migration reduced | 3350 | active
SNAI1 (snail family transcriptional repressor 1) | 1 | 0.86 | no change in migration or cell number | 4578 | inactive
SNAI1 (snail family transcriptional repressor 1) | 2 | 0.46 | migration reduced | 4494 | active
SNAI1 (snail family transcriptional repressor 1) | 3 | 0.62 | no change in migration or cell number | 5116 | inactive
SNAI1 (snail family transcriptional repressor 1) | 4 | 0.99 | no change in migration or cell number | 6908 | inactive
AKAP11 (A-kinase anchoring protein 11) | 1 | -0.2 | migration reduced | 3748 | active
AKAP11 (A-kinase anchoring protein 11) | 2 | 0.69 | no change in migration or cell number | 6294 | inactive
AKAP11 (A-kinase anchoring protein 11) | 3 | 1.23 | no change in migration or cell number | 7666 | inactive
AKAP11 (A-kinase anchoring protein 11) | 4 | 0.76 | no change in migration or cell number | 5507 | inactive
ACTBL2 (actin beta like 2) | 1 | 0.74 | no change in migration or cell number | 6831 | inactive
ACTBL2 (actin beta like 2) | 2 | 1.26 | no change in migration or cell number | 5994 | inactive
ACTBL2 (actin beta like 2) | 3 | -0.16 | migration reduced | 4343 | active
ACTBL2 (actin beta like 2) | 4 | 1 | no change in migration or cell number | 5548 | inactive
NEXMIF (neurite extension and migration factor) | 1 | 0.82 | no change in migration or cell number | 4980 | inactive
NEXMIF (neurite extension and migration factor) | 2 | 0.9 | no change in migration or cell number | 5396 | inactive
NEXMIF (neurite extension and migration factor) | 3 | 1.03 | no change in migration or cell number | 5102 | inactive
NEXMIF (neurite extension and migration factor) | 4 | 0.36 | migration reduced | 5336 | active
UBE2O (ubiquitin conjugating enzyme E2 O) | 1 | -0.04 | migration reduced | 4560 | active
UBE2O (ubiquitin conjugating enzyme E2 O) | 2 | 1.02 | no change in migration or cell number | 5902 | inactive
UBE2O (ubiquitin conjugating enzyme E2 O) | 3 | 0.9 | no change in migration or cell number | 7334 | inactive
UBE2O (ubiquitin conjugating enzyme E2 O) | 4 | 0.52 | migration reduced | 3889 | active
NODAL (nodal growth differentiation factor) | 1 | 1.06 | no change in migration or cell number | 6104 | inactive
NODAL (nodal growth differentiation factor) | 2 | 0.75 | no change in migration or cell number | 5890 | inactive
NODAL (nodal growth differentiation factor) | 3 | 0.76 | no change in migration or cell number | 4246 | inactive
NODAL (nodal growth differentiation factor) | 4 | -0.52 | too few cells; migration not scored | 2674 | inactive

A portion from the list above:
Gene | reagent no. | migration relative to mock | migration and cell number class | mean nuclei count | Outcome
TLL2 (tolloid like 2) | 1 | 0.87 | no change in migration or cell number | 4078 | inactive
TLL2 (tolloid like 2) | 2 | 0.51 | migration reduced | 4206 | active
TLL2 (tolloid like 2) | 3 | -0.1 | too few cells; migration not scored | 2903 | inactive
TLL2 (tolloid like 2) | 4 | 0.66 | no change in migration or cell number | 5194 | inactive
PPIA (peptidylprolyl isomerase A) | 1 | 1.19 | no change in migration or cell number | 4643 | inactive
PPIA (peptidylprolyl isomerase A) | 2 | 1.25 | no change in migration or cell number | 4473 | inactive
PPIA (peptidylprolyl isomerase A) | 3 | 0.88 | no change in migration or cell number | 5058 | inactive
PPIA (peptidylprolyl isomerase A) | 4 | 1.06 | no change in migration or cell number | 6476 | inactive
OPRPN (opiorphin prepropeptide) | 1 | 1.1 | no change in migration or cell number | 6550 | inactive
